Reference: PubChem BioAssay AID504793 (Drosophila RNAi Screening Center, 2011)
Test: 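Whole-genome screen for parts of the DNA damage checkpoint at G2/M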 (primary screen). System: Drosophila S2R+ cells. Reagents: long dsRNA against Drosophila genes, about 0.25 µg dsRNA per well. Duration: 4 days of dsRNA, then 4 hours of drug before read-out. Treatment: doxorubicin 0.5 µM for 4 hours to cause double-strand breaks, in cells also given a low, harmless dose of dsRNA against nbs to sensitise the assay. Detection: 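Mitotic index as the number of phospho-histone H3-positive cells in each well following doxorubicin, given as raw counts without normalisation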. Scale: mitotic cells: higher = more cells in mitosis, weaker G2 arrest. Hit rule: 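a call needs confirmation in secondary tests, with other dsRNAs and a check of mitotic timing without damage, not just a high primary count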. Meaning of the calls: active = confirmed in follow-up tests; inactive = not confirmed.
In all, the deposit lists about 23,000 reagents; shown is an unselected part of those with a known target gene and a result. In the full data, 62 (0.27%) got an active call. 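Calls come from follow-up tests whose scores are not deposited, so confirmed genes may have low counts here; counts are not normalised per plate.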 Raw values vary from plate to plate and are shown uncorrected. Unmarked entries are inactive. No sequences are given here.

After knock-down of Ir48c [DRSC06154], the screen gave mitotic cells, replicate 1 = 12.
AP-1gamma [DRSC18433] gave mitotic cells, replicate 1 = 16.
Against CG16798 [DRSC02517] the deposit lists mitotic cells, replicate 1 = 9.
With knock-down of CG44433 [DRSC06517] the results were mitotic cells, replicate 1 = 5.
CG44433 [DRSC06518] gave mitotic cells, replicate 1 = 3.
Against CG44433 [DRSC26571], the values are mitotic cells, replicate 1 = 3.

In a second layout: 2 of the entries above.
CG44433 [DRSC06518]
- mitotic cells, replicate 1: 3

CG44433 [DRSC26571]
- mitotic cells, replicate 1: 3

Additional records follow.
CG8086 [DRSC03078] showed mitotic cells, replicate 1 = 4.
CG8086 [DRSC03079] scored mitotic cells, replicate 1 = 5.
After knock-down of CG8086 [DRSC27677], the record shows mitotic cells, replicate 1 = 11.
Against CG1441 [DRSC06448], the values are mitotic cells, replicate 1 = 7.
CG1441 [DRSC27028] showed mitotic cells, replicate 1 = 4.
For Naprt [DRSC00630], the values are mitotic cells, replicate 1 = 9.
Against Naprt [DRSC28652], the entry reads mitotic cells, replicate 1 = 6.
Against AttA [DRSC05926] the deposit lists mitotic cells, replicate 1 = 5.
Silencing of AttA [DRSC27311] gave: mitotic cells, replicate 1 = 6.
